{"source": "patent US6982260B1", "about": "“Quinazolines and their use for inhibiting cyclin-dependent kinase enzymes” (Warner-Lambert Company, priority 1999, dated 2006)", "origin": "cited, not measured here", "test_system": "herpes simplex virus (HSV)", "settings": "cited from earlier work", "note": "At least one compound was matched to its structure with a doubt left.", "data": [{"smiles": "Cn1cnc2c(NCc3ccccc3)nc(NCCO)nc21", "note": "[olomoucine]", "values": [{"measurement": "HSV replication", "value": "inhibited"}]}]}
